The text below walks through data of paper PMC12166272.

These are yes or no findings as the source states them, for the method shown. Binding seen in cells or lysates may run through a third protein. Some results given as binding are weak or reduced against the parent protein; the word gives no strength. For some assays here: Sequences can lack the tags named with a protein.

Assay [1] addresses T1, endogenous IRF7 of murine liver (mouse (endogenous in murine liver tissue)) (UniProt P70434).
T1 sequence: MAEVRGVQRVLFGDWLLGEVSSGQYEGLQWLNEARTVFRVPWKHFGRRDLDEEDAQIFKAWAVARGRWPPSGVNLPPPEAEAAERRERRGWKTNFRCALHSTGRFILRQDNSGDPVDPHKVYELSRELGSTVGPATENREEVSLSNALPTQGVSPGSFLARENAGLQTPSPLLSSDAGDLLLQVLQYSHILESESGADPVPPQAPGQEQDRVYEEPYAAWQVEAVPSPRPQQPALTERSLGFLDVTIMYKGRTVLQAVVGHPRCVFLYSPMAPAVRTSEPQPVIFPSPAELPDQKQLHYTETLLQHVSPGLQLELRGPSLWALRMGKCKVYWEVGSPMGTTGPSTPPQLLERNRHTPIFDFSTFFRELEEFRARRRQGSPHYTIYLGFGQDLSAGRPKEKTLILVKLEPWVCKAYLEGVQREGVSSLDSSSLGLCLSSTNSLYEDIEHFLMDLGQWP
The experiment in a line: co-IP; endogenous IRF7 immunoprecipitated from lysates of virus-infected murine liver tissue with an anti-IRF7 monoclonal antibody or rabbit IgG; western blot with anti-NEURL3 and anti-IRF7.

In assay [2] the target is T2, NEURL3 (construct of the experiments of Figure S1; tag not told) (human) (UniProt Q96EH8).
T2 sequence: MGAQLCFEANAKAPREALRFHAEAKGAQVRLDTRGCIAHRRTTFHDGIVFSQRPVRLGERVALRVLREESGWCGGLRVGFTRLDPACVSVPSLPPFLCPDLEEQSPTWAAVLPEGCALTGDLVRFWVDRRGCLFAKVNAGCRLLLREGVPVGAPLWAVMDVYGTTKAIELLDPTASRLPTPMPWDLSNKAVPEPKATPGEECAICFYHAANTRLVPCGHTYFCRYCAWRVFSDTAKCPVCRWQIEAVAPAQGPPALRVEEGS
The experiment in a line: co-IP; whole-cell extracts of transfected cells (HEK293T) 24 h after transfection, NP-40 lysis buffer; antibody with Protein A/G beads 4 h at 4°C; washed with PBS with 0.1% NP40; immunoblot.

Another assay addresses T3, FLAG-NEURL3 (human) (UniProt Q96EH8).
T3 sequence: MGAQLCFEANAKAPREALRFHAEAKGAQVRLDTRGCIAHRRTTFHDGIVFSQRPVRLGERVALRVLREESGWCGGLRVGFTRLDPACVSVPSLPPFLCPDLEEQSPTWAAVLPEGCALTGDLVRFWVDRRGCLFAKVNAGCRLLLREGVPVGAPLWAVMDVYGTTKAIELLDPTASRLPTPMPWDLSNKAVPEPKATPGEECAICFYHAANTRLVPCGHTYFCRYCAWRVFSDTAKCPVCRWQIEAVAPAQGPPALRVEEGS
Described as above.

The target of assay [3] is T4, FLAG-IRF7 (interferon regulatory factor 7, full-length) (UniProt Q92985).
T4 sequence: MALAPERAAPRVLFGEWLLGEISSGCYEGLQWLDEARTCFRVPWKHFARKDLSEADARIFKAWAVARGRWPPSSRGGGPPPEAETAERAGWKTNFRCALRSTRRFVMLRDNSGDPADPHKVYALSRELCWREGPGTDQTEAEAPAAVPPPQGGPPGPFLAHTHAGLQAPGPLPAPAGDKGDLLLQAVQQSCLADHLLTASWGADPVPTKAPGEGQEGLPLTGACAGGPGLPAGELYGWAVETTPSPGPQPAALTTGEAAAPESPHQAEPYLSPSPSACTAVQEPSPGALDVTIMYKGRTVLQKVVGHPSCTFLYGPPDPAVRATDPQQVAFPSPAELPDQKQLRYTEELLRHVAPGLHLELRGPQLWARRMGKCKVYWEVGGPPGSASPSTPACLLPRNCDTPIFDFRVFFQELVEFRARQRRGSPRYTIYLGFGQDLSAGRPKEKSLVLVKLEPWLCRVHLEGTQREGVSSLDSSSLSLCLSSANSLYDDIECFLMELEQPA
Described as above.

B1: endogenous NEURL3 of murine liver (protein, UniProt Q8CJC5 1-254)
chain: MGSLLSPEANAEVPREALSFHGNATGAQVHLDDQRSTARRRSTFHDGIVFSQRPVWPGERVALRVLRHEEGWCGGLRVGFTRLDPAQVAASCLPPFVCPDLEEQSPTWAALLPEGFVRAGNVVCFWVNRRGWLFAKVNAGRPLLLRKDVLVQGAPLWAVMDVYGTTKAIELLDPKANAWIRSGEPVPESEVISGEECVICFHNTANTRLMPCGHSHFCGSCAWHIFKDTARCPICRWQIEEVAVVSSLKAEEGS
On to B1, for which the binding entry in assay [1] is given as “binds”.

B2: IRF4 (protein, UniProt Q15306 1-451)
chain: MNLEGGGRGGEFGMSAVSCGNGKLRQWLIDQIDSGKYPGLVWENEEKSIFRIPWKHAGKQDYNREEDAALFKAWALFKGKFREGIDKPDPPTWKTRLRCALNKSNDFEELVERSQLDISDPYKVYRIVPEGAKKGAKQLTLEDPQMSMSHPYTMTTPYPSLPAQQVHNYMMPPLDRSWRDYVPDQPHPEIPYQCPMTFGPRGHHWQGPACENGCQVTGTFYACAPPESQAPGVPTEPSIRSAEALAFSDCRLHICLYYREILVKELTTSSPEGCRISHGHTYDASNLDQVLFPYPEDNGQRKNIEKLLSHLERGVVLWMAPDGLYAKRLCQSRIYWDGPLALCNDRPNKLERDQTCKLFDTQQFLSELQAFAHHGRSLPRFQVTLCFGEEFPDPQRQRKLITAHVEPLLARQLYYFAQQNSGHFLRGYDLPEHISNPEDYHRSIRHSSIQE
As for B2, the binding entry in assay [2] is recorded as “binds weakly”.

B3: HA-IRF7 (protein, UniProt Q92985 1-503)
chain: MALAPERAAPRVLFGEWLLGEISSGCYEGLQWLDEARTCFRVPWKHFARKDLSEADARIFKAWAVARGRWPPSSRGGGPPPEAETAERAGWKTNFRCALRSTRRFVMLRDNSGDPADPHKVYALSRELCWREGPGTDQTEAEAPAAVPPPQGGPPGPFLAHTHAGLQAPGPLPAPAGDKGDLLLQAVQQSCLADHLLTASWGADPVPTKAPGEGQEGLPLTGACAGGPGLPAGELYGWAVETTPSPGPQPAALTTGEAAAPESPHQAEPYLSPSPSACTAVQEPSPGALDVTIMYKGRTVLQKVVGHPSCTFLYGPPDPAVRATDPQQVAFPSPAELPDQKQLRYTEELLRHVAPGLHLELRGPQLWARRMGKCKVYWEVGGPPGSASPSTPACLLPRNCDTPIFDFRVFFQELVEFRARQRRGSPRYTIYLGFGQDLSAGRPKEKSLVLVKLEPWLCRVHLEGTQREGVSSLDSSSLSLCLSSANSLYDDIECFLMELEQPA
With B3, the binding entry in the assay with FLAG-NEURL3 (human) was “binds”.

B4: IRF7 (construct of the experiments of Figure S1; tag not told) (protein, UniProt Q92985 1-503)
chain: MALAPERAAPRVLFGEWLLGEISSGCYEGLQWLDEARTCFRVPWKHFARKDLSEADARIFKAWAVARGRWPPSSRGGGPPPEAETAERAGWKTNFRCALRSTRRFVMLRDNSGDPADPHKVYALSRELCWREGPGTDQTEAEAPAAVPPPQGGPPGPFLAHTHAGLQAPGPLPAPAGDKGDLLLQAVQQSCLADHLLTASWGADPVPTKAPGEGQEGLPLTGACAGGPGLPAGELYGWAVETTPSPGPQPAALTTGEAAAPESPHQAEPYLSPSPSACTAVQEPSPGALDVTIMYKGRTVLQKVVGHPSCTFLYGPPDPAVRATDPQQVAFPSPAELPDQKQLRYTEELLRHVAPGLHLELRGPQLWARRMGKCKVYWEVGGPPGSASPSTPACLLPRNCDTPIFDFRVFFQELVEFRARQRRGSPRYTIYLGFGQDLSAGRPKEKSLVLVKLEPWLCRVHLEGTQREGVSSLDSSSLSLCLSSANSLYDDIECFLMELEQPA
As for B4, in assay [2], the binding entry is “binds”.

B5: HA-NEURL3 (protein, UniProt Q96EH8 1-262)
chain: MGAQLCFEANAKAPREALRFHAEAKGAQVRLDTRGCIAHRRTTFHDGIVFSQRPVRLGERVALRVLREESGWCGGLRVGFTRLDPACVSVPSLPPFLCPDLEEQSPTWAAVLPEGCALTGDLVRFWVDRRGCLFAKVNAGCRLLLREGVPVGAPLWAVMDVYGTTKAIELLDPTASRLPTPMPWDLSNKAVPEPKATPGEECAICFYHAANTRLVPCGHTYFCRYCAWRVFSDTAKCPVCRWQIEAVAPAQGPPALRVEEGS
As for B5, in assay [3], the binding result is “binds”.

B6: IRF1 (protein, UniProt P10914 1-325)
chain: MPITRMRMRPWLEMQINSNQIPGLIWINKEEMIFQIPWKHAAKHGWDINKDACLFRSWAIHTGRYKAGEKEPDPKTWKANFRCAMNSLPDIEEVKDQSRNKGSSAVRVYRMLPPLTKNQRKERKSKSSRDAKSKAKRKSCGDSSPDTFSDGLSSSTLPDDHSSYTVPGYMQDLEVEQALTPALSPCAVSSTLPDWHIPVEVVPDSTSDLYNFQVSPMPSTSEATTDEDEEGKLPEDIMKLLEQSEWQPTNVDGKGYLLNEPGVQPTSVYGDFSCKEEPEIDSPGGDIGLSLQRVFTDLKNMDATWLDSLLTPVRLPSIQAIPCAP
B6: the binding result in assay [2] is recorded as “binds weakly”.

B7: IRF9 (protein, UniProt Q00978 1-393)
chain: MASGRARCTRKLRNWVVEQVESGQFPGVCWDDTAKTMFRIPWKHAGKQDFREDQDAAFFKAWAIFKGKYKEGDTGGPAVWKTRLRCALNKSSEFKEVPERGRMDVAEPYKVYQLLPPGIVSGQPGTQKVPSKRQHSSVSSERKEEEDAMQNCTLSPSVLQDSLNNEEEGASGGAVHSDIGSSSSSSSPEPQEVTDTTEAPFQGDQRSLEFLLPPEPDYSLLLTFIYNGRVVGEAQVQSLDCRLVAEPSGSESSMEQVLFPKPGPLEPTQRLLSQLERGILVASNPRGLFVQRLCPIPISWNAPQAPPGPGPHLLPSNECVELFRTAYFCRDLVRYFQGLGPPPKFQVTLNFWEESHGSSHTPQNLITVKMEQAFARYLLEQTPEQQAAILSLV
Consider B7, for which the binding entry in assay [2] is reported as “binds weakly”.

B8: IRF8 (protein, UniProt Q02556 1-426)
chain: MCDRNGGRRLRQWLIEQIDSSMYPGLIWENEEKSMFRIPWKHAGKQDYNQEVDASIFKAWAVFKGKFKEGDKAEPATWKTRLRCALNKSPDFEEVTDRSQLDISEPYKVYRIVPEEEQKCKLGVATAGCVNEVTEMECGRSEIDELIKEPSVDDYMGMIKRSPSPPEACRSQLLPDWWAQQPSTGVPLVTGYTTYDAHHSAFSQMVISFYYGGKLVGQATTTCPEGCRLSLSQPGLPGTKLYGPEGLELVRFPPADAIPSERQRQVTRKLFGHLERGVLLHSSRQGVFVKRLCQGRVFCSGNAVVCKGRPNKLERDEVVQVFDTSQFFRELQQFYNSQGRLPDGRVVLCFGEEFPDMAPLRSKLILVQIEQLYVRQLAEEAGKSCGAGSVMQAPEEPPPDQVFRMFPDICASHQRSFFRENQQITV
Consider B8, for which, in assay [2], the binding result is recorded as “binds weakly”.
